Patent US20030091557A1, “Methods and compositions for modulating ACE-2 activity” (priority 2001, published 2003)
Results are given in words; binding and its absence hold for the method and conditions named. Some results given as binding are weak or reduced against the parent protein; the word gives no strength.

Molecular target: FLAG-tagged ACE-2 (human) (UniProt Q9BYF1)
Assay: phage ELISA, FLAG-ACE-2 on anti-FLAG antibody plate

Binder | binding
WQFCFDWDLNCDLR | binds
SDWCGTWNNPCFHQ | binds
FQLCFDWEEECEES | binds
YWFCFDWEEDANGHCGGN | binds
EHNCTWWNPCWTT | binds
WDHCNWAHPCSRK | binds
LEMCEALFCVEF [ACE-2 binding polypeptide … (Sequence Family I)] | binds
MDHCTWYQPCVLK | binds
FLLCFDWDIDWEYGCQHH | binds

Further lines, results first:

binding | Binder
binds | YEFCHYAPQECKHM
binds | LHACRPVRGDPWWACTLG
binds | YEECHWRPMACSTH
binds | RLHCKPQRQSPWMKCQHL
binds | YSHCSPLRYYPWWKCTYP
binds | WEVCHWAPMMCKHG
binds | WAVCFDWENCGDK [ACE-2 binding polypeptide …-CGDK (Sequence Family VI)]
binds | QKECKFGYPHCLPW [ACE-2 binding polypeptide … (Sequence Family VIII)]
binds | RYLCLPQRDKPWKFCNWF
